Data as given in US20100216734A1, “MODULATION OF NEUROGENESIS BY NOOTROPIC AGENTS” (BrainCells, Inc., priority 2006, published 2010).

Test system: human neural stem cells (hNSCs)
Assay: Neuronal differentiation of human neural stem cells (TUJ-1 staining)
Format: cell-based
Conditions: Neural stem cell, agent run independently, % of neuronal positive control, basal media subtracted, read-out: EC50 for neuronal differentiation, agent alone

CN1CCN(C2=Nc3cc(Cl)ccc3Nc3ccccc32)CC1 [clozapine]
EC50: 320 µM
